Data taken from the supplement of paper PMC9015667.
Some of the results follow. Repeats are few or missing, and single values can be far off.

What was measured:
Assay in all cases: reduction in cell viability relative to untreated/vehicle; higher = more growth inhibition
Settings in all cases: 200 nM; 72 h
M229P = system: M229P (parental melanoma line)
M229R = system: M229R (matched melanoma line resistant to BRAF inhibitors)
M238P = system: M238P (parental melanoma line)
M238R = system: M238R (matched melanoma line resistant to BRAF inhibitors)
M249P = system: M249P (parental melanoma line)
M249R = system: M249R (matched melanoma line resistant to BRAF inhibitors)
UACC62P = system: UACC62P (parental melanoma line)
UACC62R = system: UACC62R (matched melanoma line resistant to BRAF inhibitors)

Measured: reduction in cell viability

CCCCOc1ccc(C(=O)Nc2ccc(F)cc2F)cc1
< 0%: all assays above

S=c1nc[nH]c2nc[nH]c12 [6-mercaptopurine]
3.09%: UACC62P
1.92%: M249R
3.48%: M229P
12.3%: M229R
< 0%: all other assays above

Cc1cccc(-c2[nH]c(C(C)(C)C)nc2-c2ccc3c(c2)OCO3)n1
2.94%: M238P
8.16%: UACC62R
25.1%: M249P
< 0%: all other assays above

C/C=C(/C(=C/C)c1ccc(O)cc1)c1ccc(O)cc1 [Dienestrol]
14.3%: M249R
1.64%: UACC62P
< 0%: all other assays above

Cc1cc(CS(=O)(=O)c2ccccc2)cc(OCc2ccc(CN3CCC[C@@H]3CO)cc2)c1
< 0%: all assays above

COc1cc2nccc(Oc3ccc(NC(=O)Nc4ccc(F)cc4F)c(F)c3)c2cc1OC
14.2%: M249P
4.69%: UACC62P
< 0%: all other assays above

Cn1ccc2cc3c(cc21)CCN3C(=O)Nc1cccnc1
13.7%: UACC62P
< 0%: all other assays above

O=C(Nc1ccc(OC(F)(F)F)cc1)c1sccc1NCc1ccnc2ccccc12
< 0%: all assays above

Cc1cnc(C(=O)O)c[n+]1[O-] [Acipimox]
< 0%: all assays above

COc1c(C)cnc(Cn2cnc3c(Cl)nc(N)nc32)c1C
61.9%: UACC62P
34.5%: M238P
20.7%: M249R
50.5%: M229P
45.4%: M238R
61.8%: UACC62R
63.8%: M229R
28.8%: M249P

CC(C)C(=O)Nc1ccc([N+](=O)[O-])c(C(F)(F)F)c1 [Flutamide]
19.5%: M249R
< 0%: all other assays above

COc1cc(C)c(/C=C/C(C)=C/C=C/C(C)=C/C(=O)O)c(C)c1C [Acitretin]
13.6%: M249P
< 0%: all other assays above

CN1[C@@H]2CC[C@H]1C[C@@H](OC(=O)c1c[nH]c3ccccc13)C2 [Tropisetron]
4.47%: M249P
< 0%: all other assays above

CC1(C)C(N(O)C(=O)Nc2ccc(Cl)cc2)N(c2ccc(Cl)cc2)C(=O)N1CC(=O)NN=CC=Cc1ccc([N+](=O)[O-])o1 (stereo not drawn) [Eeyarestatin I]
5.66%: UACC62P
3.86%: M249R
< 0%: all other assays above

C[C@@]1(c2cc(-c3cncnc3)c(F)cc2F)CCSC(N)=N1
3.95%: UACC62P
< 0%: all other assays above

COC(=O)[C@H](Cc1ccccc1)NC(=O)[C@@H](N)CC(=O)O [Aspartame]
< 0%: all assays above

COc1ccc(CCC(=O)c2c(O)cc(O[C@@H]3O[C@H](CO)[C@@H](O)[C@H](O)[C@H]3O[C@@H]3O[C@@H](C)[C@H](O)[C@@H](O)[C@H]3O)cc2O)cc1O [Neohesperidin dihydrochalcone]
0.04%: UACC62P
< 0%: all other assays above

NC(=O)Nc1sc(-c2ccc(F)cc2)cc1C(N)=O
6.77%: M249R
< 0%: all other assays above

Quoted at random: two entries already listed
NC(=O)Nc1sc(-c2ccc(F)cc2)cc1C(N)=O
6.77%: M249R
< 0%: all other assays above

COc1ccc(CCC(=O)c2c(O)cc(O[C@@H]3O[C@H](CO)[C@@H](O)[C@H](O)[C@H]3O[C@@H]3O[C@@H](C)[C@H](O)[C@@H](O)[C@H]3O)cc2O)cc1O [Neohesperidin dihydrochalcone]
0.04%: UACC62P
< 0%: all other assays above

Additional records follow.

N#Cc1c(NC(=O)c2cccc3ccccc23)sc2c1CCCC2
14.8%: M229P
13.3%: M249P
31.9%: M249R
52.4%: M238R
60.3%: UACC62R
26.9%: UACC62P
55.1%: M238P
38%: M229R

OC[C@H]1O[C@@H](n2cnc3c2N=CNC[C@H]3O)C[C@@H]1O [Pentostatin]
< 0%: all assays above

Clc1cc(Cl)cc(CNc2ncncc2-c2ccc3c(c2)OCO3)c1
2.48%: M249R
< 0%: all other assays above

Cc1cnc(-c2cc(N3CCN(C(=O)CCS(C)(=O)=O)CC3)ncc2Cl)c(C)c1
< 0%: all assays above

O=C(O)[C@@H](c1ccc(OCc2ccc3ccccc3n2)cc1)C1CCCC1 [Veliflapon]
5.04%: UACC62P
< 0%: all other assays above

Clc1ccc(COC(Cn2ccnc2)c2ccc(Cl)cc2Cl)cc1 (stereo not drawn) [Econazole nitrate]
< 0%: all assays above

CC(C)[C@H](CO)Nc1nc(Nc2ccc(C(=O)O)c(Cl)c2)c2ncn(C(C)C)c2n1 [Purvalanol B]
0.71%: M249R
< 0%: all other assays above

C[C@](N)(Cc1ccc(O)c(O)c1)C(=O)O [Methyldopa]
< 0%: all assays above

CCOC(=O)c1ncn2c1CN(C)C(=O)c1cc(F)ccc1-2 [Flumazenil]
8.46%: M249R
4.29%: UACC62P
< 0%: all other assays above

C=CCn1c(=O)c2cnc(Nc3ccc(N4CCN(C)CC4)cc3)nc2n1-c1cccc(C(C)(C)O)n1
63.4%: UACC62R
36.1%: UACC62P
< 0%: M238R
43.1%: M249P
45%: M238P
6.72%: M229P
50.4%: M249R
54.8%: M229R

Nc1ncnc2ccccc12 [4-Quinazolinamine]
< 0%: all assays above

C[N+]1(C)[C@@H]2C[C@@H](OC(=O)C(O)(c3cccs3)c3cccs3)C[C@H]1[C@@H]1O[C@@H]12 [Tiotropium bromide]
11.4%: M249R
< 0%: all other assays above

NC(=O)c1cccnc1 [Niacinamide]
< 0%: all assays above

CCCCCCCCOc1ccccc1C(=O)Nc1ccc(C(=O)OCC[N+](C)(CC)CC)cc1 [Octylonium bromide]
< 0%: all assays above

CC(C)(C)NC(=O)Nc1cccc(Nc2ncc(F)c(NC(C)(C)CO)n2)c1 [Bayer-18]
3.26%: M229P
< 0%: all other assays above

O=C(O)c1ccc(Nc2ncc3c(n2)-c2ccc(Cl)cc2C(c2c(F)cccc2F)=NC3)cc1
7.63%: M229R
24.9%: UACC62R
16.2%: UACC62P
< 0%: all other assays above

CO[C@@H]1[C@H](N(C)C(=O)c2ccccc2)C[C@H]2O[C@]1(C)n1c3ccccc3c3c4c(c5c6ccccc6n2c5c31)C(=O)NC4=O [Stauprimide]
11.5%: M238P
16.8%: M238R
1.89%: UACC62P
< 0%: all other assays above

CCN(CC)CCNC(=O)c1ccc2nc(-c3ccccc3)c(-c3ccc(CN4CCC(n5c(=O)[nH]c6ccccc65)CC4)cc3)nc2c1 [Merck-22-6]
< 0%: all assays above

Cc1ccc(Nc2nccc(N(C)c3ccc4c(C)n(C)nc4c3)n2)cc1S(N)(=O)=O [Pazopanib]
6.01%: M249R
< 0%: all other assays above

NC(=O)c1ccc(N(C(N)=O)c2c(F)cccc2F)nc1-c1ccc(F)cc1F
< 0%: all assays above

O=C(c1ccc(F)cc1)C1CCN(CCn2c(=O)[nH]c3ccccc3c2=O)CC1 [Ketanserin]
1.08%: UACC62P
< 0%: all other assays above

O=C(CCCCCCC(=O)Nc1ccccc1)NO [Suberoylanilide hydroxamic acid]
14.9%: M229R
< 0%: all other assays above

O=C(c1ccc(F)cc1)N1CCC[C@H](c2nc(-c3ccc(F)cc3)no2)C1
< 0%: all assays above
